# Assay results reported in article PMC7435865 (Molecules, 2020).
# Test: general procedure: solution-phase peptide synthesis; DCC/HOSu
# Settings: late stage modification step
row,Substance,step yield [%]
1,PEPTIDE1{Y.P.F.F.[NHN-CH-35CF3Ph]}$$$$V2.0,32
2,PEPTIDE1{Y.[dA].F.F.[NHN-CH-35CF3Ph]}$$$$V2.0,28
3,PEPTIDE1{Y.[dA].F.F.[NHNHCO-35CF3Ph]}$$$$V2.0,42
4,PEPTIDE1{Y.[dA].G.F.[NHNHCO-35CF3Ph]}$$$$V2.0,16
5,PEPTIDE1{Y.[dA].G.F.[NHNHCOCH2-35CF3Ph]}$$$$V2.0,22
6,PEPTIDE1{Y.[dA].G.F.[NHNHCONHN-CH-35CF3Ph]}$$$$V2.0,20
7,PEPTIDE1{Y.[dA].G.W.[NHN-CH-35CF3Ph]}$$$$V2.0,21
8,PEPTIDE1{Y.[dA].G.W.[NHNHCO-35CF3Ph]}$$$$V2.0,19

# Strings that start with PEPTIDE1 are HELM notation: dots part the residues, brackets hold end groups and non-standard residues.
